Hit rate of the full screen: of about 400,000 compounds, about 5,500 (1.4%) were called active. This list was built around the results that the source calls inconclusive (neither active nor inactive); the mix of calls is not that of the screen. Calls follow the shape of the dose curve; as a rule, active = well fitted cell-killing curve with a large enough effect; inconclusive = small, poorly fitted or top-dose-only effect, or effect the other way; inactive = flat fitted curve, though single readings scatter. Potencies beside an inconclusive call are fits to weak or partial responses and may not hold up.
Test: qHTS assay for MDR1-selective chemotherapeutics: Primary screen using the parental adenocarcinoma cell KB-3-1; also: nearly all actives have a fitted effect of over 60% in size
Settings: KB-3-1 viability, CellTiter-Glo ATP luminescence, 72 h; activity change, negative = cytotoxic: at 46.1 µM (top of the series)
In short: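 Parental KB-3-1 viability, qHTS format: 72 h compound exposure, 37 °C; CellTiter-Glo; media-only wells and DMSO plates as controls; concentration-effect fits on corrected data.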
% is scaled to controls: 0 for no effect and ±100 for the full control effect; potency is read from the fitted curve at half-maximal effect.

Row | Structure (SMILES) | activity change, negative = cytotoxic | Potency
1 | CCOc1ccc(C(CCc2ccccc2)NC(=O)c2ccccc2)cc1OCC (centres undefined) | inactive: 0.179% | 
2 | COc1ccc(NC(=S)SC)cc1OC | inactive: -0.174% | 
3 | CCOc1cc(/C=N/NC(=O)C2CC2)ccc1OC(C)C |  | inconclusive: 41.1 µM [rising, single point]
4 | COCCNC(=O)CSC1=N/C(=C/c2ccc(Cl)c(Cl)c2)C(=O)N1c1ccccc1F | inactive: 0% | 
5 | Cc1cc(C)n(-c2cc(N3CCN(S(=O)(=O)c4ccc(Br)cc4)CC3)ccc2[N+](=O)[O-])n1 | inconclusive: -88.2% | 
6 | CC(C)c1cc(C(=O)Nc2sc3c(c2C#N)CCC3)no1 |  | inconclusive: 29.1 µM [cytotoxic, single point]
7 | CCOC(=O)N1CCN(C(c2ccnc3ccccc23)c2nnnn2-c2ccc3c(c2)OCCO3)CC1 (centres undefined) |  | inconclusive: 18.4 µM [cytotoxic, single point]
8 | COc1ccc2nc(C)cc(Nc3ccc(Cl)c(Cl)c3)c2c1 |  | inconclusive: 29.1 µM [cytotoxic, single point]
9 | CN(C(=O)c1cccc(NC(=O)Cc2ccc([N+](=O)[O-])cc2)c1)C1CCCCC1 |  | inconclusive: 25.9 µM [cytotoxic, single point]
10 | O=C(Cn1c(=O)oc2cc(S(=O)(=O)N3CCCCC3)ccc21)NCc1ccc(Cl)cc1 |  | inconclusive: 29.1 µM [cytotoxic, single point]
11 | CCCCn1c(=NC(=O)c2cc3ccccc3o2)c(C(=O)OCC)cc2c(=O)n3ccccc3nc21 | inactive: 10.9% | 
12 | COc1ccc(CN2C(=O)CN(S(C)(=O)=O)CC2(C)C(=O)NCc2ccccc2)cc1OC (centres undefined) | inactive: -3.52% | 
13 | COc1cc(/C=N/NC(=O)c2cc(-c3ccccc3OC(C)C)nc3ccccc23)ccc1O |  | active: 18.4 µM
14 | CCN(C(=O)COC(=O)c1cn(-c2ccccc2)nc1-c1ccccc1)C1CCS(=O)(=O)C1 (centres undefined) |  | inconclusive: 11.6 µM [rising, partial curve, poor fit]
15 | CC(/C=N/NC(=O)c1cc(C(C)C)[nH]n1)=C\c1ccccc1 |  | inconclusive: 29.1 µM [cytotoxic, single point]
16 | CC(=O)c1cccc(NC(=O)N2CCCC2C(=O)NCc2ccc(F)cc2)c1 (centres undefined) |  | inconclusive: 15.8 µM [rising, partial curve, poor fit]
17 | COc1ccc2c(c1)C=C(CN1CCC(CO)(CCc3ccccc3)CC1)CO2 | inactive: 0% | 
18 | COc1cc2c(cc1OC)C(c1ccc(-c3ccc(Cl)cc3Cl)o1)=NCC2 |  | active: 23.1 µM
19 | COC(=O)C1=C(C)N(C)C(C)=C(C(=O)OC)C1c1ccc(Cl)cc1 |  | inconclusive: 29.1 µM [cytotoxic, single point]

Grouped by structure, the entries above containing a furan ring, fused or not
Row | Structure (SMILES) | activity change, negative = cytotoxic | Potency
11 | CCCCn1c(=NC(=O)c2cc3ccccc3o2)c(C(=O)OCC)cc2c(=O)n3ccccc3nc21 | inactive: 10.9% | 
18 | COc1cc2c(cc1OC)C(c1ccc(-c3ccc(Cl)cc3Cl)o1)=NCC2 |  | active: 23.1 µM

Reference: PubChem BioAssay AID1347075 (National Center for Advancing Translational Sciences (NCATS), 2019)
